# Reference: PubChem BioAssay (Tox21)
# Inconclusive results, whose numbers are uncertain, are shown with a selection of clear calls. A potency beside an inconclusive call is a rough fit, not a confirmed value. Active and inactive are the calls of the source. Calls come from the whole dose curve.
# Biological target: Beta-2 adrenergic receptor (Homo sapiens) (UniProt P07550)
# Assay: Adrenergic beta2 receptor (ADRB2) small molecule agonists, cell-based qHTS assay (AID 1963593);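 for activation: CHO cells stably overexpressing human ADRB2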
# Conditions: CHO-ADRB2 cells, cAMP HTRF, 30 min; activation: at 92.4 µM (top of the series) unless noted
# Method in brief: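 CHO cells stably over-expressing ADRB2 were plated overnight at 37C, then dosed with compounds plus a stimulation mix containing 100uM IBMX and 25uM Ro-20-1724 for 0.5hr at room temperature. cAMP was measured by HTRF competition, 1hr.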
# % is set by controls: 0 for no effect and ±100 for the full control effect; potency is the fitted concentration of half-maximal effect.
SMILES,Potency,activation
CCN1C=CN(C)C1C (centres undefined),"inconclusive: 6.89 µM [inhibitor, single point]",
C=C1[C@H]2CC[C@@H]3[C@H]2C(C)(C)CCC[C@]13C,,inactive: 4.55%
CC(=O)c1nccs1,,inconclusive: 8.34%
CCCCOC(=O)C(C)CC (centres undefined),,inconclusive: 9.77%
C=COCCCC,,inactive: 7.73%
CC(=O)OC(C)OC(C)=O,,inconclusive: 8.9%
O=C1C(=O)c2ccccc2C(O)=C1C1CCC(c2ccc(Cl)cc2)CC1 (centres undefined),"inconclusive: 0.298 µM [inhibitor, single point]",
CC(C)CNCC(C)C,,inconclusive: 3.53%
CC(=O)CC/C=C(\C)CC/C=C(\C)CC/C=C(\C)CCC=C(C)C,,inconclusive: -60.6% [at 42.5 µM]
CC(C)(C)NC(N)=O,,inconclusive: 5.56%
Cc1ncc(COP(=O)(O)O)c(C=O)c1O,,inconclusive: 3.95% [at 42.5 µM]
Cc1cccc(C(=O)O)c1O,,inactive: -31.6% [at 42.5 µM]
CC(=O)c1ccc2ccccc2c1,,inactive: 7.98%
CNC(=O)C(c1ccccc1)c1ccccc1,,inconclusive: -3.47%
O=C(O)c1cccc(C[C@@H]2COc3ccc(OCc4nc5cc(F)ccc5s4)cc3[C@@H]2O)c1,,inactive: 3.29%
FC(F)(F)c1ccccc1-n1ccnc1,,inactive: -0.723% [at 42.5 µM]
O=C(O)CONC(=O)c1ccccc1,,inactive: -5.23%
Clc1ccccn1,inactive,
CCCC1CCOC(C)S1 (centres undefined),,inactive: -1.28%

# Filtered by structure, those above containing a COOH group.
SMILES,Potency,activation
Cc1cccc(C(=O)O)c1O,,inactive: -31.6% [at 42.5 µM]
O=C(O)c1cccc(C[C@@H]2COc3ccc(OCc4nc5cc(F)ccc5s4)cc3[C@@H]2O)c1,,inactive: 3.29%
O=C(O)CONC(=O)c1ccccc1,,inactive: -5.23%
